Source: patent US20190046659A1
No constants are given. Whether binding was seen depends on the method and setting. Some entries that bind do so weakly or less than the wild type.

The chains behind the UniProt entries cited, without tags or fusion partners. Residues count along the entry.
UniProt P51654, residues 25-559: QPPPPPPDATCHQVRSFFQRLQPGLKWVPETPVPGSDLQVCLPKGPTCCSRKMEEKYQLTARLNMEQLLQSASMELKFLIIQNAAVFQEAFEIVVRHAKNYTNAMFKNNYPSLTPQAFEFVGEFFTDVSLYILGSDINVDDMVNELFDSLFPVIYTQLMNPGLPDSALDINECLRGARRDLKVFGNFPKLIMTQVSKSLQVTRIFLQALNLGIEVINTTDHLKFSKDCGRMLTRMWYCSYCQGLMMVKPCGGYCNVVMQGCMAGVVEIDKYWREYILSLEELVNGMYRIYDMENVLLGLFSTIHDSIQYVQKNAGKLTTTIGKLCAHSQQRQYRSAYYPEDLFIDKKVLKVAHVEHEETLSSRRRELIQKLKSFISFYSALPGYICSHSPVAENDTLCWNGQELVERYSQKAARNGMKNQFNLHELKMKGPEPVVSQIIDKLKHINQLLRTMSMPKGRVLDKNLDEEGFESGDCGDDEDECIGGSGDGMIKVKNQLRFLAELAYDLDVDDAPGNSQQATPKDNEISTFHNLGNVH

What was measured:
[1] = biological target: recombinant human GPC3 (rhGPC3), purchased from Andy Biosciences (Shanghai) Co., Ltd. (human) (UniProt P51654); experiment: ELISA on recombinant human GPC family members (FIG. 5)
[2] = biological target: recombinant human GPC3 (rhGPC3), purchased from Andy Biosciences (Shanghai) Co., Ltd. (human) (UniProt P51654); experiment: ELISA, 100 ng/well coated antigen, 100 ng antibody per well, HRP rabbit anti-human Fc detection, OD450
[3] = biological target: recombinant human GPC3 (rhGPC3), purchased from Andy Biosciences (Shanghai) Co., Ltd. (human) (UniProt P51654); experiment: ELISA, 100 ng coated antigen per well, 100 ng antibody per well, HRP rabbit anti-human Fc detection
[4] = biological target: human GPC3 recombinant protein (purchased from Shanghai Rui Jin Biotechnology Co., Ltd.) (human) (UniProt P51654); experiment: SPR, Biacore T200 (summary of Table 1)
[5] = biological target: human GPC3 recombinant protein (purchased from Shanghai Rui Jin Biotechnology Co., Ltd.) (human) (UniProt P51654); experiment: SPR (Biacore T200), antibody captured on anti-human IgG (Fc) chip, GPC3 injected at 5, 10, 20, 40, 80 nM, single-cycle kinetics
[6] = biological target: human GPC3 recombinant protein (purchased from Shanghai Rui Jin Biotechnology Co., Ltd.) (human) (UniProt P51654); experiment: SPR (Biacore T200), human GPC3 amine-coupled to the chip, antibody injected, multi-cycle kinetics, reference subtracted
[7] = biological target: human GPC3 recombinant protein (purchased from Shanghai Rui Jin Biotechnology Co., Ltd.) (human) (UniProt P51654); experiment: SPR, Biacore T200 (summary of Table 2)
[8] = biological target: human GPC3 protein GPC3(H) (human) (UniProt P51654); experiment: ELISA screen of hybridoma clones on coated GPC3(H)

B1: P7D4 mutant single chain antibody am20 (scFv, not shown: a dimerising Fc or GST)
chain: QVQLQESGGGLVQPGRSLRLSCAASGFTFSTYAMNWVRQAPGKGLEWVSAISMSGESTYYADSVKGRFTISRDNSKNTLYLQMNSLRAEDTAVYYCAKDRRGSHADAFDVWGQGTLVTVSSGGGGSGGGGSGGGGSQSALTQPPSASGSPGQSVTISCTGTSSDVGGYNYVSWYQQYPGKAPKLLIYGNSNRPSGVPDRFSGSKSGTSASLAITGLQAEDGADYYCQSYDSSLRVVFGGGTKVTVLG
- binding [1]: binds
- binding [2]: binds
- binding [3]: binds
- binding [4]: binds
- binding [5]: binds

B2: humanized antibody Y035 (antibody, V domains shown)
VH: EVQLVQSGAEVKKPGASVKVSCKASGYTFSDYEMHWVRQAPGQGLEWMGAIHPGSGDTAYNQRFKGRVTITADKSTSTAYMELSSLRSEDTAVYYCARFYSYAYWGQGTLVTVSA
VL: DIVMTQTPLSLPVTPGEPASISCRSSQSLVHSNGNTYLQWYLQKPGQSPQLLIYKVSNRFSGVPDRFSGSGSGTDFTLKISRVEAEDVGVYYCSQSIYVPYTFGQGTKLEIKR
- binding [6]: binds
- binding [7]: binds

B3: parental murine monoclonal antibody 5A5 (antibody, V domains shown)
VH: QVQLQQSGTELVRPGASVKLSCKALGYTFTDYEMHWVKQTPVHGLEWIGAIHPGSGDTAYNQRFKGKATLTADKSSSTAYMEYSSLTSEDSAVYYCTRFYSYAYWGQGTLVTVSA
VL: DVVMTQTPLSLPVSLGDQASISCRSSQSLVHSNGNTYLQWYLQKPGQSPKLLIYKVSNRFSGVPDRFSGRGSGTDFTLKISRVEAEDLGVYFCSQSIYVPYTFGGGTKLEIKR
- binding [8]: binds
